Assay results as given in paper doi:10.64898/2025.11.30.691369.
These are yes or no findings as the source states them, for the method shown. In cells and extracts the contact can be indirect. Sequences can lack the tags named with a protein.

Target: T1, Pikm-1-2xV5 (rice (Oryza sativa)) (UniProt B5UBC1)
T1 sequence: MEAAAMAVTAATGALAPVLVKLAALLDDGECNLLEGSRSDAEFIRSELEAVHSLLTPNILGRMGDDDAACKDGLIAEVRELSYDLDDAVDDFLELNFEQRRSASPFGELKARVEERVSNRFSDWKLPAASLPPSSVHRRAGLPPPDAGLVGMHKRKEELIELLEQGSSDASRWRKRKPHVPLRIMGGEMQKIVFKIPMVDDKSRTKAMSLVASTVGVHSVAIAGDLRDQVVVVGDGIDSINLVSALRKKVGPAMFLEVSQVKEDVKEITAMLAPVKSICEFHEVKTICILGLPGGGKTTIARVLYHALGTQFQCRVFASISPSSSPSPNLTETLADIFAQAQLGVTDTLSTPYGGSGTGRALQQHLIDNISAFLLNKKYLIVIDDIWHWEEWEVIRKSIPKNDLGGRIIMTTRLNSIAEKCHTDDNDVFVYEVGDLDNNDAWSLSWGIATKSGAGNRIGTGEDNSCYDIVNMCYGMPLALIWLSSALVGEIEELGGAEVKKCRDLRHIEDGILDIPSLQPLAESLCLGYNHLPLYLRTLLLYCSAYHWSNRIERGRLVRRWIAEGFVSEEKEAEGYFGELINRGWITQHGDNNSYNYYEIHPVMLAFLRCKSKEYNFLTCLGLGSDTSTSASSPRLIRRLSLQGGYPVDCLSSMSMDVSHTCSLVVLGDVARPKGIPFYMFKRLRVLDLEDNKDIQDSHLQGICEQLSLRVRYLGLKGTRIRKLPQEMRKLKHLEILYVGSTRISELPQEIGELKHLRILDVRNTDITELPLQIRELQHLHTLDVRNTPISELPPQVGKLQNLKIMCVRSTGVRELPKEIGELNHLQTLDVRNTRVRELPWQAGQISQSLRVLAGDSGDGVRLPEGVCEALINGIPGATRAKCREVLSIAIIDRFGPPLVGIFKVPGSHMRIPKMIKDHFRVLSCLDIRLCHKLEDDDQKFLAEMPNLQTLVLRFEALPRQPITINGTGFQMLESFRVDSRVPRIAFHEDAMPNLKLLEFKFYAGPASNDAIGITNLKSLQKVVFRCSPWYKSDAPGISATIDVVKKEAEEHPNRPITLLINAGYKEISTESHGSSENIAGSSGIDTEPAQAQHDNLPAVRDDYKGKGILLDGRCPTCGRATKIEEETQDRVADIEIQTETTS
Assay: co-IP

binding: no binding
B1: Rx-HA (receptor, UniProt Q9XGF5 1-937)
chain: MAYAAVTSLMRTIHQSMELTGCDLQPFYEKLKSLRAILEKSCNIMGDHEGLTILEVEIVEVAYTTEDMVDSESRNVFLAQNLEERSRAMWEIFFVLEQALECIDSTVKQWMATSDSMKDLKPQTSSLVSLPEHDVEQPENIMVGRENEFEMMLDQLARGGRELEVVSIVGMGGIGKTTLATKLYSDPCIMSRFDIRAKATVSQEYCVRNVLLGLLSLTSDEPDDQLADRLQKHLKGRRYLVVIDDIWTTEAWDDIKLCFPDCYNGSRILLTTRNVEVAEYASSGKPPHHMRLMNFDESWNLLHKKIFEKEGSYSPEFENIGKQIALKCGGLPLAITVIAGLLSKMGQRLDEWQRIGENVSSVVSTDPEAQCMRVLALSYHHLPSHLKPCFLYFAIFTEDEQISVNELVELWPVEGFLNEEEGKSIEEVATTCINELIDRSLIFIHNFSFRGTIESCGMHDVTRELCLREARNMNFVNVIRGKSDQNSCAQSMQRSFKSRSRIRIHKVEELAWCRNSEAHSIIMLGGFECVTLELSFKLVRVLDLGLNTWPIFPSGVLSLIHLRYLSLRFNPCLQQYQGSKEAVPSSIIDIPLSISSLCYLQTFKLNLPFPSYYPFILPSEILTMPQLRTLCMGWNYLRSHEPTENRLVLKNLQCLNQLNPRYCTGSFFRLFPNLKKLQVFGVPEDFRNSQDLYDFRYLYQLEELTFRLYYPYAACFLKNTAPSGSTQDPLRFQTEILHKEIDFGGTAPPTLLLPPPDAFPQNLKSLTFRGEFSVAWKDLSIVGKLPKLEVLILSWNAFIGKEWEVVEEGFPHLKFLFLDDVYIRYWRASSDHFPYLERVILRDCRNLDSIPRDFADITTLALIDIDYCQQSVVNSAKQIQQDIQDNYGSSIEVHTRHLFIPKSVTTVEDDDDSVTTDEDDDDDDFEKEVASCRNNVE
